Experimental data as given in the supplement of paper PMC12578635.
This is one part of the list. Rule as the data show it: active = 150% or more and inactive = the rest. Single values are uncertain, as repeats are few or missing.

test system: Staphylococcus aureus JE2-lux inside RAW 264.7 macrophages; assay: intracellular bacterial bioluminescence relative to DMSO vehicle; higher = higher intracellular bacterial metabolic activity; settings: 10 µM; treatment time 4 h; gentamicin 50 µg/ml

Intracellular bacterial bioluminescence, inactive:
O=C(Nc1ccccc1-c1ccccc1)N1CCC(c2nc3ccccc3o2)CC1 82.3%
COCCNc1nc(-c2nnc(-c3cccc(C)c3)o2)nc2ccccc12 55.9%
c1ccc(CN2CCN(c3ncnc4[nH]cnc34)CC2)cc1 96.3%
Cn1c(CCC(=O)NC(c2ccccc2)c2cccnc2)nc2ccccc21 (stereo not drawn) 113%
Cc1[nH]c2ccccc2c1C(Nc1ccccn1)c1cccs1 (stereo not drawn) 93.3%
COc1ccccc1N1CCN(c2nc(C)c(CCC(C)C)c(=O)[nH]2)CC1 102%
Cc1cccc(-c2nc3c(c(SCC(=O)N4CCOCC4)n2)Cc2c(CO)cnc(C)c2O3)c1 105%
Cc1ccc(Nc2cc(N3CCN(C(=O)c4cccs4)CC3)nc(C)n2)cc1 34.7%
O=C(Cn1cnc2c(cnn2CCO)c1=O)N1CCC(Cc2ccccc2)CC1 121%
COc1ccc(Cl)cc1C(=O)Nn1cnc2c(cnn2-c2ccccc2)c1=O 124%
COC(=O)C1=C(C)OC(N)=C(C#N)C1c1ccc(OC)cc1 (stereo not drawn) 107%
CCOc1ccc(-c2cccc(NC(=O)c3ccco3)c2)nn1 77.5%
Cc1cc2oc(=O)cc(-c3cc4ccccc4o3)c2cc1O 123%
O=C(O)CSc1nnc2c(n1)[nH]c1cccc(C(F)(F)F)c12 112%
CC(C)CCNC(=O)Nc1c(-c2ccncc2)[nH]c2c(Cl)cccc12 81.6%
NC(=O)c1oc2ccccc2c1NC(=O)Cc1ccc([N+](=O)[O-])cc1 95.9%
C#CCn1/c(=N/C(=O)c2cccc(S(C)(=O)=O)c2)sc2cc(C)c(C)cc21 100%
Cn1nc(C2CC2)cc1C(=O)Nc1cccc(-c2csnn2)c1 85.1%
CC1=C(C(=O)Nc2ccccc2C)C(c2ccccc2)NC(=O)N1 (stereo not drawn) 104%
O=C(CSc1nc(-c2ccccc2)cc(=O)[nH]1)NCc1ccc(F)cc1 110%
CN1C(=O)c2cccc(NC(=O)c3cc(-c4cccs4)nc4ccccc34)c2C1=O 136%
CC(C)(C)c1cc(Br)ccc1OCC(=O)Nc1nnc[nH]1 112%
Cc1[nH]c2ccccc2c1CCNC(=O)c1ccc2nccnc2c1 115%
CCc1cc2cc3c(cc2n2c(=O)n(Cc4cscn4)nc12)OCO3 115%
Cc1cc(N2CCC(C(=O)Nc3cccc4ccccc34)CC2)n2ncnc2n1 101%
COc1cc(C)c(S(=O)(=O)Nc2cccc(-n3c(C)nc4ccccc4c3=O)c2)cc1C 110%
CC(C)N1C(=O)/C(=C2/C(=O)N(CC(=O)Nc3ccccc3F)c3ccccc32)SC1=S 88.7%
CC(=O)NNC(=O)CSc1nc2sc3c(c2c(=O)[nH]1)CCC(C(C)(C)C)C3 (stereo not drawn) 81.7%
CCOc1ccc(OCC)c(NS(=O)(=O)c2ccc3onc(C(=O)N4CCCC4)c3c2)c1 48.8%
COc1cccc(-c2csc(/C(C#N)=C\Nc3ccc([N+](=O)[O-])cc3)n2)c1 110%
CC(=O)Nc1ccc2nc(C)n(CC(=O)Nc3ccc(F)cc3)c(=O)c2c1 96.4%
COc1cccc(NC(=O)CSc2nnc3ccccn23)c1 80.7%
COc1ccc(CCNC(=O)CSc2nc3sc4c(c3c(=O)[nH]2)CCC4)cc1OC 67.5%
CCn1cccc1-c1nc(C)c(C(=O)Nc2cc(C)cc(C)c2)s1 38.2%
COC(=O)c1cccc(Oc2nnc(-c3ccc(F)cc3)c3ccccc23)c1 22.3%
CCOc1ccc2[nH]c(=O)c(CN(Cc3cccnc3)C(=O)Nc3ccccc3F)cc2c1 103%
Fc1ccc(-c2csc3ncnc(NCC4CCCO4)c23)cc1 (stereo not drawn) 66.5%
C=CCn1/c(=N/C(=O)CSCC(=O)N2CCN(C(=O)OCC)CC2)sc2cc(Cl)ccc21 45.8%
Cc1c(-c2n[nH]c(=S)n2C)sc2nc3n(c(=O)c12)CCC3 116%
Cc1nc2sc(C(c3cccs3)N3CCN(CCO)CC3)c(O)n2n1 (stereo not drawn) 85.2%
CCn1nc(C)c(C(=O)NCCn2nc3c(C)cc4ccc(C)cc4n3c2=O)c1C 101%
COc1ccc(NC(=O)CSc2nc(=O)n(CCN3CCOCC3)c3c2CCC3)cc1OC 46.5%
CCOC(=O)c1ccccc1NC(=O)/C=C1/Nc2ccccc2NC1=O 88.7%
COc1ccc(NC(=S)N2CCC(n3cnc4ccccc43)CC2)c(OC)c1 110%
O=C(O)CCN1C(=O)/C(=C/c2cc([N+](=O)[O-])ccc2OCc2ccccc2Cl)SC1=S 111%
O=C(Nc1cc(Cl)cc(Cl)c1)c1ccc(S(=O)(=O)N2CCCCCC2)cc1 99.8%
O=C(NCc1ccc2[nH]c3c(c2c1)CCCC3)NC1CCCCC1 88.5%
O=C1c2oc3ccc(Cl)cc3c(=O)c2C(c2ccncc2)N1CCc1ccccc1 (stereo not drawn) 83.1%
FC(F)(F)c1cccc(CSc2ncnc3ccccc23)c1 69.1%
CC(=O)c1ccc(NC(=O)CSc2nc(C)cc(C)c2C#N)cc1 31.1%
COc1c(C(=O)NC2CCCOC2)cnc2cc(Cl)ccc12 (stereo not drawn) 63.7%
O=C1OCCC1Sc1nc2ccccc2c(=O)[nH]1 (stereo not drawn) 120%
CCOCCn1ccc2c(OCC(=O)NCCc3ccc(OC)c(OC)c3)cccc2c1=O 120%
O=C(CC1NC(=O)NC1=O)Nc1ccc(F)cc1 (stereo not drawn) 97.9%
CCOc1ccc(NC(=O)CCn2c(=S)[nH]c3ccccc3c2=O)cc1 109%
CCCSc1nc2c(c(=O)[nH]1)C(c1ccc(Cl)cc1)C1=C(CCCC1=O)N2 (stereo not drawn) 96.2%
O=C(NCC(c1ccco1)N1CCc2ccccc21)C(=O)Nc1ccc([N+](=O)[O-])cc1 (stereo not drawn) 100%
CCn1cc(C(=O)N2CCC(n3c(C)nc4sc(C)c(C)c4c3=O)CC2)c(C)n1 97.5%
